PubChem BioAssay AID1671190 (National Center for Advancing Translational Sciences (NCATS), 2021)
“And” between values parts separate entries of the source, which are not always exact repeats. Equal entries are not always repeated. Hit rate of the full screen: of about 580,000 compounds, about 6,100 (1.1%) were called active. Inconclusive means that the source gave no clear call. Such entries were picked first, then a sample of the others. The call rests on the fitted dose curve; in most records, active means well fitted inhibition curve with a large enough effect; inconclusive means small, poorly fitted or top-dose-only effect, or another doubt; inactive means no such curve, though single readings can be large or run the other way. Potencies beside an inconclusive call are fits to weak or partial responses and may not hold up.

Protein sequences, listed by entry. Tags and fused reporters are not part of them. Lines headed by an entry give the natural chain unless they say otherwise; changes in a name come on top.
UniProt P18054: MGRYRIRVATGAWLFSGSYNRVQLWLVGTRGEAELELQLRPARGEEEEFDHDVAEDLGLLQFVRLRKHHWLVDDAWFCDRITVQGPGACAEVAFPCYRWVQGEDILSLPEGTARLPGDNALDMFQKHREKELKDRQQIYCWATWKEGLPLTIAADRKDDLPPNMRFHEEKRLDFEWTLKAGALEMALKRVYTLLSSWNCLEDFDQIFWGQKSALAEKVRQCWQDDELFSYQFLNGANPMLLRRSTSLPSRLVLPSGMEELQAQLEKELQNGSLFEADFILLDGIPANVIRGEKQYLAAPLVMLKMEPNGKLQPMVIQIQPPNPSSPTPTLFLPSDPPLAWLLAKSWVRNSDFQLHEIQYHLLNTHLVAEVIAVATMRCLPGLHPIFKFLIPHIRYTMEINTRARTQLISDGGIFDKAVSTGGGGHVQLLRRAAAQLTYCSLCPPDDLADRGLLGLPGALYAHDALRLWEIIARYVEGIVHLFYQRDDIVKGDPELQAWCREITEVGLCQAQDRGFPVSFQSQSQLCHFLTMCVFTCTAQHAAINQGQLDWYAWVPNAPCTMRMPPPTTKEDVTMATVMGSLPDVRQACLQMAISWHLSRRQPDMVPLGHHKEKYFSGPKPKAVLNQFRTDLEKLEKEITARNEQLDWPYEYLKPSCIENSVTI

biological target: Polyunsaturated fatty acid lipoxygenase ALOX12 (Homo sapiens) (UniProt P18054); assay: Primary qHTS assay for inhibitors of human arachidonate 12S-lipoxygenase (ALOX12): Round 2; settings: purified 12hLO, xylenol orange hydroperoxide absorbance; activity change, negative = inhibition: at 108 µM (top of the series) unless noted
Method in brief: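 Purified human 12hLO at 150 nM in 25 mM Hepes, 0.01% Triton X-100, pH 7.0, preincubated 15 min at room temperature with compound. Reaction started with 40 uM arachidonic acid, 30 min at room temperature. Hydroperoxide measured by Fe-xylenol orange, 573/405 nm absorbance ratio.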
On the % scale 0 is the no-effect control and ±100 the full control effect; potency means the concentration at half of the fitted maximal effect.

Structure (SMILES)	activity change, negative = inhibition	Potency
Cn1c(C(=O)Nc2ccc(OC(F)(F)F)cc2)cc2c(=O)n3ccccc3nc21	inconclusive: -33% [inhibitor]	–
COC(=O)c1ccc(Cl)cc1NC(=O)Cn1c(=O)n(Cc2ccc(F)cc2)c(=O)c2ccccc21	–	inconclusive: 39.8 µM [inhibitor, partial curve, poor fit]
Cc1ccc(COc2c(Cl)cc(/C=C(/C#N)c3nc4ccc(C)cc4[nH]3)cc2Cl)cc1	inactive: 31.2%	–
CCN(CC)CCNC(=O)Cc1nn(C)c(=O)c2ccccc12	–	inconclusive: 158 µM [inhibitor, partial curve, poor fit]
O=C(c1cccs1)N1CCN(Cc2ccc(=O)n(CC3CC3)c2)CC1	inactive: 58.6%	–
COc1cc(-c2nc3ccc(Cl)cn3c2Nc2ccc3c(c2)OCCO3)ccc1O	–	active: 7.94 µM
CC(CCc1ccccc1)NC(=O)CCC(=O)NC12CC3CC(CC(C3)C1)C2 (stereo not given)	inactive: -14.6%	–
Cc1ccc(C(=O)NC(c2cccnc2)c2cc(C)ccc2C)cc1 (stereo not given)	–	inconclusive: 3.55 µM [inhibitor, full curve, poor fit]
Fc1ccccc1NCc1nnc2n1CCCCC2	inactive: -1.18%	–
O=C(c1ccc(Cl)cc1)N1CCC2(C1)C(=O)N(Cc1ccccc1)c1ccccc12 (stereo not given)	–	inconclusive: 63.1 µM [inhibitor, partial curve, poor fit]
Cc1cccc(CNC(=O)c2c3n(c(C)cc2=O)-c2ccccc2SC(c2ccsc2)C3)n1 (stereo not given)	inactive: 13.9%	–
Cc1cc(C)cc(C(=O)NCCn2cc(SCC(=O)N3CCOCC3)c3ccccc32)c1	–	inconclusive: 100 µM [inhibitor, single point]
O=C(CSc1nnnn1C1CC1)Nc1ccc(N2CCN(Cc3ccccc3)CC2)cc1	inactive: -0.12%	–
CC1CC(c2ccccc2)n2nc(NC(=O)c3ccco3)nc2N1 (stereo not given)	–	inconclusive: 0.794 µM [inhibitor, partial curve, poor fit]
COc1ccc(N2C(=O)C3C(C2=O)C(C(=O)c2ccccc2)N2CCCC32)cc1 (stereo not given)	–	inconclusive: 20 µM [inhibitor, partial curve, poor fit]
Cn1c(=N)c(S(=O)(=O)c2ccccc2)cc2c(=O)n3ccccc3nc21	inactive: 0%	–
COC[C@H]1CCCN1Cc1nc(C2(O)CCN(C3CCN(C)CC3)CC2)cs1	inactive: -6.26% [at 176 µM]	–
Cc1ccc(S(=O)(=O)N[C@@H](C)C(=O)OCC(=O)N2c3ccccc3NC(=O)C2(C)C)cc1	–	inconclusive: 112 µM [inhibitor, single point]
CCNC(=O)NC(=O)C(C)OC(=O)c1cc(-c2ccco2)nc2ccccc12 (stereo not given)	–	active: 12.6 µM
COc1cc(CC(=O)NC2CCC(C)CC2)ccc1C (stereo not given)	inactive: 34.3%	–
Cc1cccc(CSc2ncccc2C(=O)O)c1	–	inactive and inconclusive: 708 nM [inhibitor, full curve, poor fit]
Cc1cc(C(=O)CN(C)Cc2ccc3c(c2)OCO3)c(C)n1C(C)C	–	inconclusive: 31.6 µM [inhibitor, full curve, poor fit]

Structure (SMILES)	activity change, negative = inhibition	Potency
Cc1c(C(=O)N2CCC(c3nc4ccccc4o3)CC2)oc2cc(Br)ccc12	–	inconclusive: 12.6 µM [inhibitor, partial curve]
CC(C)CCNC1(Cc2cc(CN3CCOCC3)on2)COC1	–	inconclusive: 25.1 µM [inhibitor, partial curve, poor fit]
C[N+]1(CC#Cc2ccccc2)CCC(c2ccccc2)(c2ccccc2)CC1	–	inconclusive: 6.31 µM [inhibitor, full curve, poor fit]
COc1ccc(CN2C(=O)[C@@H]3C[C@@H](CN3CC3CC3)Oc3ccccc32)cc1	inactive: -0.311% [at 176 µM]	–
COCCN[C@@H]1C[C@@H]2c3[nH]c4ccccc4c3C[C@@H](C(=O)OC)N2[C@H](c2ccc(C(C)C)cc2)C1	–	inconclusive: 44.7 µM [inhibitor, full curve]
O=C(CSc1ncnc2c1cnn2-c1ccccc1)NC1CCS(=O)(=O)C1 (stereo not given)	–	inconclusive: 50.1 µM [inhibitor, single point]
Cc1ccc(NC(=O)C2CCCN(S(=O)(=O)c3c(C)noc3/C=C/N(C)C)C2)cc1F (stereo not given)	–	inconclusive: 50.1 µM [inhibitor, partial curve, poor fit]
COc1ccc(C(=O)/C=C/Nc2ccc([N+](=O)[O-])cc2)cc1	–	inconclusive: 56.2 µM [inhibitor, partial curve, poor fit]
COc1cc(SC)ccc1C(=O)OCC(=O)NCc1ccco1	inactive: -6.69%	–
Cc1ccc(CN2CCCCCCNC(=O)[C@@H]3CCC[C@@H]32)s1	inactive: 261%	–
C=CC(=O)Nc1cccc(Oc2ccnc(Nc3ccc(N4CCN(C)CC4)cc3)n2)c1	–	inconclusive: 50.1 µM [inhibitor, partial curve, poor fit]
CCOC(=O)N1CCN(C(=O)CSC2=NS(=O)(=O)c3ccccc3N2)CC1	inactive: 18.5%	–
COc1ccc(/C=N/n2c(N)c(S(=O)(=O)c3cccs3)c3nc4ccccc4nc32)cc1OC	inactive: -11.7%	–
Cc1cc(Br)cn2c(Cc3ccccc3C(F)(F)F)c(-c3ccc(F)cc3)nc12	–	inconclusive: 79.4 µM [inhibitor, partial curve, poor fit]
Cc1ccc(CN2CCCC2)cc1	–	inconclusive: 2 µM [inhibitor, full curve, poor fit]
COc1ccc(NC(=O)c2sc3nc4c(c(-c5ccco5)c3c2N)CCC4)cc1	–	inconclusive: 56.2 µM [inhibitor, partial curve, poor fit]
O=C(O)CN1C(=O)C2C3CC(C2C1=O)C1C(c2ccccc2)c2sc(=O)[nH]c2SC31 (stereo not given)	inactive: -19.4%	–
O=C(Nc1nccs1)C1CC(=O)N(CCc2ccccc2)C1 (stereo not given)	–	inconclusive: 112 µM [inhibitor, single point]
CC(C)NC(=O)c1cccc(Cl)c1	inactive: 3.05%	–
O=C(Cc1ccc(Br)cc1)Nc1cc(Cl)ccc1C(=O)O	–	inconclusive: 44.7 µM [inhibitor, partial curve, poor fit]
CC1=C[C@@H](CN2CCN(c3cnccn3)CC2)[C@H](C(C)C)C[C@H]1Cc1nnc(-c2cccnc2)o1	–	inconclusive: 39.8 µM [inhibitor, single point]
COc1ccc(OC)c(C2C(C(C)=O)=C(C)Nc3ncnn32)c1 (stereo not given)	inactive: -27.1%	–

Structure (SMILES)	activity change, negative = inhibition	Potency
Cc1ccc(C(=O)N2CC=C(c3c[nH]c4ccccc34)CC2)cc1	–	inconclusive: 35.5 µM [inhibitor, partial curve, poor fit]
CCOC(=O)C1(C(=O)OCC)N=C(c2ccccc2)C=C1c1ccccc1	–	inconclusive: 112 µM [inhibitor, single point]
CC1CCCN(c2ncnc3c2cnn3-c2ccc(Cl)cc2)C1 (stereo not given)	–	inconclusive: 89.1 µM [inhibitor, single point]
O=C(NCCO)N1c2ccccc2Sc2ccccc21	–	inconclusive: 44.7 µM [inhibitor, partial curve, poor fit]
COC(=O)c1ccc([C@H](NC(=O)c2ccco2)[C@]2(C)C[C@H]2C2CCCCC2)cc1	–	inconclusive: 56.2 µM [inhibitor, partial curve, poor fit]
CC(C)Nc1oc(-c2ccco2)nc1S(=O)(=O)c1ccc2c(c1)OCCO2	–	inconclusive: 31.6 µM [inhibitor, full curve, poor fit]
O=C(COC(=O)Cc1ccc(S(=O)(=O)N2CCOCC2)s1)Nc1ccc2c(c1)OCO2	–	inconclusive: 0.178 µM [inhibitor, full curve, poor fit]
COC(=O)c1ccc(Oc2cc(C)nc(Cl)n2)cc1	–	inconclusive: 44.7 µM [inhibitor, partial curve]
O=C(CCc1ccc(S(=O)(=O)N2CCOCC2)cc1)N/N=C/c1ccc(O)c(O)c1O	inactive: 0.336%	–
Ic1ccc(SN(Cc2ccco2)Sc2ccc(I)cc2)cc1	–	inconclusive: 31.6 µM [inhibitor, partial curve, poor fit]
O=S(=O)(Nc1cccc(Cl)c1)c1ccc2oc(=S)[nH]c2c1	–	inconclusive: 44.7 µM [inhibitor, partial curve, poor fit]
CN(C)C(=O)c1cccc(NC(=O)c2cc(Br)c(Br)s2)c1	–	inconclusive: 3.98 µM [inhibitor, full curve, poor fit]
O=C(Cc1ccsc1)Nc1ccc(-c2nnc3n2CCCC3)cc1	inactive: 25.5%	–
Cc1cc2nc(CCN(C(=S)NCC(C)C)C3CCCC3)[nH]c2cc1C	–	inconclusive: 44.7 µM [inhibitor, partial curve, poor fit]
CC(=Cc1ccccc1)C=C1SC(=S)N(CCCC(=O)Nc2ccc(C(=O)O)c(O)c2)C1=O	–	inconclusive: 44.7 µM [inhibitor, partial curve, poor fit]
Cc1ccc(CNc2nc(NCC3CC3)nc3ccsc23)c(C)c1	–	inconclusive: 79.4 µM [inhibitor, partial curve, poor fit]
c1cc[n+](CCC[n+]2ccccc2)cc1	–	inconclusive: 1.58 µM [inhibitor, full curve, poor fit] and inconclusive: 63.1 µM [inhibitor, partial curve, poor fit]
CC(C)C(=O)N1Cc2ccccc2CC2(CCCN(CC3CCCCC3)C2)C1 (stereo not given)	inactive: 42.7%	–
O=C(c1nc(-c2ccsc2)c2cnccn12)N1CCOCC1	–	inconclusive: 17.8 µM [inhibitor, full curve]
C=CCOc1ccc(/C=C(\C#N)c2nc3cc(C)c(C)cc3[nH]2)cc1OC	–	inconclusive: 56.2 µM [inhibitor, partial curve, poor fit]
S=c1[nH]cnc2scc(-c3ccc(Cl)cc3)c12	inactive: 7.86%	–

Single records, as listed above.
O=C(CCc1ccc(S(=O)(=O)N2CCOCC2)cc1)N/N=C/c1ccc(O)c(O)c1O is listed as activity change, negative = inhibition: inactive: 0.336%
CC(C)C(=O)N1Cc2ccccc2CC2(CCCN(CC3CCCCC3)C2)C1 (stereo not given) is listed as activity change, negative = inhibition: inactive: 42.7%
CN(C)C(=O)c1cccc(NC(=O)c2cc(Br)c(Br)s2)c1 is listed as Potency: inconclusive: 3.98 µM [inhibitor, full curve, poor fit]
CC1CCCN(c2ncnc3c2cnn3-c2ccc(Cl)cc2)C1 (stereo not given) is listed as Potency: inconclusive: 89.1 µM [inhibitor, single point]
